{"source": "patent US8148510B2", "about": "“Antifungal polypeptides” (Pioneer Hi-Bred International, Inc., priority 2004, dated 2012)", "test": "accumulation in T0 generation transgenic maize plants, western blot", "conditions": "T0 PHP22300 maize plants", "data": [{"substance": "LBNL-5220: antifungal polypeptide (55 amino acids, mature mass 6174 Da) isolated from Penicillium simplicissimum fermentation broth (LKYTGTCTRANNQCKYKGQNDRDTFVKCPTFANKKCTRDGAPCSFDSYSRAVTCD)", "values": [{"measurement": "accumulation of LBNL-5220 in upper stalk tissue", "setting": "about 10 days after pollination", "value": "greater than 20 μg of LBNL-5220/g DW"}, {"measurement": "accumulation of LBNL-5220 in leaf tissue", "setting": "~V7 stage", "value": "approximately 2 μg of LBNL-5220/g FW"}]}]}
